Measured values reported in PMC9606859, “Chemical Synthesis of Trans 8-Methyl-6-Nonenoyl-CoA and Functional Expression Unravel Capsaicin Synthase Activity Encoded by the Pun1 Locus” (Molecules, 2022).
Results are given in words; binding and its absence hold for the method and conditions named.

Target: recombinant capsaicin synthase encoded by Pun1 (Capsicum chinense)
Assay: SEC; Superdex Increase 10/300, 0.4 mL/min, 50 mM TRIS/HCl pH 7.5, 5% glycerol, 150 mM NaCl; after Ni-NTA and concentration; enzyme activity of the fractions overlaid on UV280; preparation only partly purified; both purified

B1: recombinant capsaicin synthase encoded by Pun1 (enzyme, UniProt A0A2G3D6U1 1-440)
chain: MAFALPSSLVSVCDKSFIKPSSLTPSTLRFHKLSFIDQSLSNMYIPCAFFYPKVQQRLEDSKNSDELSHIAHLLQTSLSQTLVSYYPYAGKLKDNATVDCNDMGAEFLSVRIKCSMSEILDHPHASLAESIVLPKDLPWANNCEGGNLLVVQVSKFDCGGIAISVCFSHKIGDGCSLLNFLNDWSSVTRDHTTTTLVPSPRFVGDSVFSTKTYGSLTTPQILSDLNECVQKRLIFPTDKLDALRAKVAEESGVKNPTRAEVVSALLFKCATKASSSMLPSKLVHFLNIRTMIKPRLPRNTIGNLSSIFSIEATNMQDMELPTLVRNLRKEVEVAYKKDQVEQNELILEVVESMREGKLPFENMDGYENVYTCSNLCKYPYYTVDFGWGRPERVCLGNGPSKNAFFLKDYKAGQGVEARVMLHKQQMSEFERNEELLEFIA
With B1 as the binder, how does the binding read?
The binding was “no binding”.
